The results in this text go back to PMC10015162.

The chains behind the UniProt entries cited, without tags or fusion partners. Where a name states a change or a piece, a line headed by the entry shows the natural chain unless it says otherwise. Residues count along the entry.
UniProt Q39011: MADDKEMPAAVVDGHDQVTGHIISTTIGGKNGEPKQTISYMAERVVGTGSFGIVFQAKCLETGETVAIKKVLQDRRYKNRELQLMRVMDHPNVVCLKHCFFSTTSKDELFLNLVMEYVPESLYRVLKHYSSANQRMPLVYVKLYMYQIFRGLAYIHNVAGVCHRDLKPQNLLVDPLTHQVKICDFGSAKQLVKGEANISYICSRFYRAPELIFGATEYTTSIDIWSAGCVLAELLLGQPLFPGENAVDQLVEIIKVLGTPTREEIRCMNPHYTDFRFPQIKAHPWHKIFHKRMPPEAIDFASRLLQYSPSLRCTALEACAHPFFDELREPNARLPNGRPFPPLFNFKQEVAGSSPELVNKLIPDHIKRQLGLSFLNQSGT
UniProt O65655: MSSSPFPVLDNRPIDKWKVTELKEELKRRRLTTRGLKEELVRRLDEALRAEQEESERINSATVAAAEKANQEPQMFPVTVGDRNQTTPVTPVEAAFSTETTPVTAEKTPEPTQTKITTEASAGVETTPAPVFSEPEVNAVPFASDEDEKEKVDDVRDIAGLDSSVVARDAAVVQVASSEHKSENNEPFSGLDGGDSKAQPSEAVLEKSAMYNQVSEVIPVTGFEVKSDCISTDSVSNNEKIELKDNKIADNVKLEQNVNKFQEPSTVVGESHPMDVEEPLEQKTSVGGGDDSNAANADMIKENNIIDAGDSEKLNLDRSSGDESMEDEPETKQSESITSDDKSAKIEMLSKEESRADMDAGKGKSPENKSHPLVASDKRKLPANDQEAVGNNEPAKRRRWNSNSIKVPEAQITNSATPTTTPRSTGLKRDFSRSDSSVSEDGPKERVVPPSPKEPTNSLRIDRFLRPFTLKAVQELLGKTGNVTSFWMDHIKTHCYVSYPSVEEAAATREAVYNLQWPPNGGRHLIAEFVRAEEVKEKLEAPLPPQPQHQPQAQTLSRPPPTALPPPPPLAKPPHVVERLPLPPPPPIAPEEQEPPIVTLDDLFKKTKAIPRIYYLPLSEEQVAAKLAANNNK
UniProt P93025: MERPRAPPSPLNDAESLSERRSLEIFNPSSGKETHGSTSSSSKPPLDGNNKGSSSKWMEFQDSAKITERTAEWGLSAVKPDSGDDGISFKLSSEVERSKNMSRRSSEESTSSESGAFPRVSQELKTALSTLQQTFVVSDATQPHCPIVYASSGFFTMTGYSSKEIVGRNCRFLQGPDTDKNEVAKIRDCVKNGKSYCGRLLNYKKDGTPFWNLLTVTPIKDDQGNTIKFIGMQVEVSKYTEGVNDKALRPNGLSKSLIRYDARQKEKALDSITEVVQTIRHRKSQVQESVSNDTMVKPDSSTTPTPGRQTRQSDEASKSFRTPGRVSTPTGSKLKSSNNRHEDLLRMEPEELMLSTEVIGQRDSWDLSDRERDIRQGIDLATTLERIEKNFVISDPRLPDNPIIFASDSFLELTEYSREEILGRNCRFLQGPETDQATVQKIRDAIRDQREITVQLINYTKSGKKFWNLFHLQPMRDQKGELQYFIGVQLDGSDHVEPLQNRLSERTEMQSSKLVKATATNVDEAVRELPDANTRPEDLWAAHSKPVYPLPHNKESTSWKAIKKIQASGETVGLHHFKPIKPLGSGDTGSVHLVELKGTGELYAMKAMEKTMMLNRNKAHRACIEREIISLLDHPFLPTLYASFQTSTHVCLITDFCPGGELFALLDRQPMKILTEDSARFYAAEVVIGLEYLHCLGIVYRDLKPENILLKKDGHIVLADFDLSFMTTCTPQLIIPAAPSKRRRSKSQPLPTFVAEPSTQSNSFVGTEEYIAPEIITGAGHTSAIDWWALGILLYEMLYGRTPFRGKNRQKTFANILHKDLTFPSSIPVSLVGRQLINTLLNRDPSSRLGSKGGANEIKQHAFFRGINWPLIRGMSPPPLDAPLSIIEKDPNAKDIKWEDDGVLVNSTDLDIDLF
UniProt Q9SR05, residues 27-850: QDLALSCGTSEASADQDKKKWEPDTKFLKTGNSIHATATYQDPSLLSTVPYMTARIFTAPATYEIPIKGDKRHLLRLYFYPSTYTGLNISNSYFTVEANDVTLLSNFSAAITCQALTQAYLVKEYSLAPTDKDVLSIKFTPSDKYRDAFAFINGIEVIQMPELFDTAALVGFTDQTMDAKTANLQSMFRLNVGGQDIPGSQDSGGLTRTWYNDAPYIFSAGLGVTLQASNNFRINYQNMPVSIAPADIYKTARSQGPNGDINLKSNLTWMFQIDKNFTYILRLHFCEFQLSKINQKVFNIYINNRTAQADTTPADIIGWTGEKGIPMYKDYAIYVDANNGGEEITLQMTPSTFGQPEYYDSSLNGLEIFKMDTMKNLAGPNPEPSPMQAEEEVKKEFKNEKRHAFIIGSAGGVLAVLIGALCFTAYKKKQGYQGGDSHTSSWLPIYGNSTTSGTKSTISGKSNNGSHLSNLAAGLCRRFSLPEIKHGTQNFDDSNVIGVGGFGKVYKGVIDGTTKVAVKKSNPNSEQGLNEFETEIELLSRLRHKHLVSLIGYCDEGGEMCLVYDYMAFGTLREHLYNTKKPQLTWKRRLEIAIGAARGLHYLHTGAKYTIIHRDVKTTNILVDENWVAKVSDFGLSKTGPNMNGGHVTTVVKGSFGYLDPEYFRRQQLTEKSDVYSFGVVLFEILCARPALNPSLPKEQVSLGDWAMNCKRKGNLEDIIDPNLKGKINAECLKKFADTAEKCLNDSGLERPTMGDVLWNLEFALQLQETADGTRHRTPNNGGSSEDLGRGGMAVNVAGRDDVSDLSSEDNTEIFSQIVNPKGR
UniProt Q9C8G3: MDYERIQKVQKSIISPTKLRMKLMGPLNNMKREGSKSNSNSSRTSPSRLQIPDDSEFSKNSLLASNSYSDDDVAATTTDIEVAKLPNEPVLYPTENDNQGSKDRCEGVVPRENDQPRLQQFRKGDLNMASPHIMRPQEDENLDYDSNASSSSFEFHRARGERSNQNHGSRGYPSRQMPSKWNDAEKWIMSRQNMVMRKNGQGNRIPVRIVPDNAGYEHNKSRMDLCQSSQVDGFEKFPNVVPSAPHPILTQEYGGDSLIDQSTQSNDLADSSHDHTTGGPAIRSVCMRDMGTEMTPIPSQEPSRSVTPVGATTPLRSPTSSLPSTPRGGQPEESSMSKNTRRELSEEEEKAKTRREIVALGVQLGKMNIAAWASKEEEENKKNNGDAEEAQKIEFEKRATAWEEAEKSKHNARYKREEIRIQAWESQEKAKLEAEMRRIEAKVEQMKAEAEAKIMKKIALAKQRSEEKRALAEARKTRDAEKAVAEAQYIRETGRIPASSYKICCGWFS
UniProt Q9LX66, residues 25-830: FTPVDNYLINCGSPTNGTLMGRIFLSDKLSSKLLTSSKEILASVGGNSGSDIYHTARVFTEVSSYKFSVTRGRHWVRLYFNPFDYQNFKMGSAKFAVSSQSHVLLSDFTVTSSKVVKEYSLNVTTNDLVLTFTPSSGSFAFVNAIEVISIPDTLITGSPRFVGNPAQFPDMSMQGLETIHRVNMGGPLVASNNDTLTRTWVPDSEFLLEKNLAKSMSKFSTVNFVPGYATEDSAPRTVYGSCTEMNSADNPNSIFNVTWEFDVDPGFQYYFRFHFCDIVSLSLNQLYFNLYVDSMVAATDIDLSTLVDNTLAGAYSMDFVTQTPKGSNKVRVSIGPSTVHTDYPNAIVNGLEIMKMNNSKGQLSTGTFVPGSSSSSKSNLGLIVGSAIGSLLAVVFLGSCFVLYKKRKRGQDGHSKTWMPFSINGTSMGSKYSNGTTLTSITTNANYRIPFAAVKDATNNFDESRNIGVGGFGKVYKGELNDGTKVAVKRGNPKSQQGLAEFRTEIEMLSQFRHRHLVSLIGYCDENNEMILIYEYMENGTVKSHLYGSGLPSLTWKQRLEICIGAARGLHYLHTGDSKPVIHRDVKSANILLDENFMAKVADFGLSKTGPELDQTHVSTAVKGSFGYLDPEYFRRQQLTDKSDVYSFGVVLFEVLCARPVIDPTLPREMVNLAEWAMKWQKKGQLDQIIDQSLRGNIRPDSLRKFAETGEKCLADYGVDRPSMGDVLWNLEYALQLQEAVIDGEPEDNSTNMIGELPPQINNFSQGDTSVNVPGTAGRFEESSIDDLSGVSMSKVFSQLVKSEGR
UniProt Q3E8W4, residues 28-858: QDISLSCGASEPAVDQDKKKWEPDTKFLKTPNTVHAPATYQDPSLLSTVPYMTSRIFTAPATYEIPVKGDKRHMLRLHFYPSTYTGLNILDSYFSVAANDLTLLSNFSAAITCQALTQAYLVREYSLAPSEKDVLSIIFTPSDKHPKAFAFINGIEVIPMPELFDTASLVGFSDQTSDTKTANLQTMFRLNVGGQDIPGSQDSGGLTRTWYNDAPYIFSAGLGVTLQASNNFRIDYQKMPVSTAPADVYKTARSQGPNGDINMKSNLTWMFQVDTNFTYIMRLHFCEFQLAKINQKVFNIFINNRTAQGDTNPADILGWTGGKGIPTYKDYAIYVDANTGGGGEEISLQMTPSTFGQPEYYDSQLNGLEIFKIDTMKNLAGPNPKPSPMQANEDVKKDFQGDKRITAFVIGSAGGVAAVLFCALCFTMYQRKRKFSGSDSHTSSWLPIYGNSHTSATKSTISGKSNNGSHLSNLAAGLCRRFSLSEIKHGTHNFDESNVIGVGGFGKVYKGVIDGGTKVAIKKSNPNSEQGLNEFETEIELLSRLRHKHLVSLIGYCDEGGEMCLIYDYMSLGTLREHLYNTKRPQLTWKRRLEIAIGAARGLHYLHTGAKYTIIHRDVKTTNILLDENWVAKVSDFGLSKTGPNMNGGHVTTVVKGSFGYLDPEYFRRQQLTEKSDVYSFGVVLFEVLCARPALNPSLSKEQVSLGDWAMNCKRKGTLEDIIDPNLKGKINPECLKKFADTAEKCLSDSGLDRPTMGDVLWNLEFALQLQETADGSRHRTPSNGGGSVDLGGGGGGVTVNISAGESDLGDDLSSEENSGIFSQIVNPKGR
UniProt F4IRZ1: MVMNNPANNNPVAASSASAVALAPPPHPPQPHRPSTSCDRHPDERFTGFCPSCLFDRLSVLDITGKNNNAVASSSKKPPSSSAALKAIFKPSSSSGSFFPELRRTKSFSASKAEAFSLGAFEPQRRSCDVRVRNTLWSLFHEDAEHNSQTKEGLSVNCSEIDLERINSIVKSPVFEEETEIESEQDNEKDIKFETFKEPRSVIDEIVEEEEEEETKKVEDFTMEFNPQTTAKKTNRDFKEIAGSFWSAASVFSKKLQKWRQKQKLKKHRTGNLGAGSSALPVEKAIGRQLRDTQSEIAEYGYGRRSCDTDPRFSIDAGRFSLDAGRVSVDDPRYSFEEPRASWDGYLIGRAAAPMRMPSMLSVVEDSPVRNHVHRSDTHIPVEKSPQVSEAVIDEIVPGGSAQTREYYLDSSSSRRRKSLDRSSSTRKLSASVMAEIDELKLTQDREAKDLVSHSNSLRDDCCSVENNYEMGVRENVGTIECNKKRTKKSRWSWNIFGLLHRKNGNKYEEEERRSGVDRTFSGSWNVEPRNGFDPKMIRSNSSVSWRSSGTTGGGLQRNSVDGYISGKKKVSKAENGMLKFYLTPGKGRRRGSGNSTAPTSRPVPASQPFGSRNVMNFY

First the molecules themselves.
B1: MAPK kinase kinase YODA (protein, UniProt Q9CAD5 1-883)
chain: MPWWSKSKDEKKKTNKESIIDAFNRKLGFASEDRSSGRSRKSRRRRDEIVSERGAISRLPSRSPSPSTRVSRCQSFAERSPAVPLPRPIVRPHVTSTDSGMNGSQRPGLDANLKPSWLPLPKPHGATSIPDNTGAEPDFATASVSSGSSVGDIPSDSLLSPLASDCENGNRTPVNISSRDQSMHSNKNSAEMFKPVPNKNRILSASPRRRPLGTHVKNLQIPQRDLVLCSAPDSLLSSPSRSPMRSFIPDQVSNHGLLISKPYSDVSLLGSGQCSSPGSGYNSGNNSIGGDMATQLFWPQSRCSPECSPVPSPRMTSPGPSSRIQSGAVTPLHPRAGGSTTGSPTRRLDDNRQQSHRLPLPPLLISNTCPFSPTYSAATSPSVPRSPARAEATVSPGSRWKKGRLLGMGSFGHVYLGFNSESGEMCAMKEVTLCSDDPKSRESAQQLGQEISVLSRLRHQNIVQYYGSETVDDKLYIYLEYVSGGSIYKLLQEYGQFGENAIRNYTQQILSGLAYLHAKNTVHRDIKGANILVDPHGRVKVADFGMAKHITAQSGPLSFKGSPYWMAPEVIKNSNGSNLAVDIWSLGCTVLEMATTKPPWSQYEGVPAMFKIGNSKELPDIPDHLSEEGKDFVRKCLQRNPANRPTAAQLLDHAFVRNVMPMERPIVSGEPAEAMNVASSTMRSLDIGHARSLPCLDSEDATNYQQKGLKHGSGFSISQSPRNMSCPISPVGSPIFHSHSPHISGRRSPSPISSPHALSGSSTPLTGCGGAIPFHHQRQTTVNFLHEGIGSSRSPGSGGNFYTNSFFQEPSRQQDRSRSSPRTPPHVFWDNNGSIQPGYNWNKDNQPVLSDHVSQQLLSEHLKLKSLDLRPGFSTPGSTNRGP
B2: PIN-FORMED 4 (protein, UniProt Q8RWZ6 1-616)
chain: MITWHDLYTVLTAVVPLYVAMILAYGSVQWWKIFSPDQCSGINRFVAIFAVPLLSFHFISTNDPYAMNFRFVAADTLQKIIMLVLLALWANLTKNGSLEWMITIFSLSTLPNTLVMGIPLLIAMYGTYAGSLMVQVVVLQCIIWYTLLLFLFEYRGAKLLIMEQFPETGASIVSFKVESDVVSLDGHDFLETDAEIGNDGKLHVTVRKSNASRRSLMMTPRPSNLTGAEIYSLSSTPRGSNFNHSDFYSVMGFPGGRLSNFGPADLYSVQSSRGPTPRPSNFEENNAVKYGFYNNTNSSVPAAGSYPAPNPEFSTGTGVSTKPNKIPKENQQQLQEKDSKASHDAKELHMFVWSSSASPVSDVFGGGAGDNVATEQSEQGAKEIRMVVSDQPRKSNARGGGDDIGGLDSGEGEREIEKATAGLNKMGSNSTAELEAAGGDGGGNNGTHMPPTSVMTRLILIMVWRKLIRNPNTYSSLIGLIWALVAYRWHVAMPKILQQSISILSDAGLGMAMFSLGLFMALQPKIIACGNSVATFAMAVRFITGPAIMAVAGIAIGLHGDLLRIAIVQAALPQGIVPFVFAKEYNVHPTILSTGVIFGMLIALPITLVYYILLGL
B3: PIN-FORMED 3 (protein, UniProt Q9S7Z8 1-640)
chain: MISWHDLYTVLTAVIPLYVAMILAYGSVRWWKIFSPDQCSGINRFVAIFAVPLLSFHFISTNNPYAMNLRFIAADTLQKIIMLSLLVLWANFTRSGSLEWSITIFSLSTLPNTLVMGIPLLIAMYGEYSGSLMVQIVVLQCIIWYTLLLFLFEFRGAKMLIMEQFPETAASIVSFKVESDVVSLDGHDFLETDAEIGDDGKLHVTVRKSNASRRSFCGPNMTPRPSNLTGAEIYSLSTTPRGSNFNHSDFYNMMGFPGGRLSNFGPADMYSVQSSRGPTPRPSNFEENCAMASSPRFGYYPGGGAGSYPAPNPEFSSTTTSTANKSVNKNPKDVNTNQQTTLPTGGKSNSHDAKELHMFVWSSNGSPVSDRAGLNVFGGAPDNDQGGRSDQGAKEIRMLVPDQSHNGETKAVAHPASGDFGGEQQFSFAGKEEEAERPKDAENGLNKLAPNSTAALQSKTGLGGAEASQRKNMPPASVMTRLILIMVWRKLIRNPNTYSSLIGLIWALVAFRWHVAMPKIIQQSISILSDAGLGMAMFSLGLFMALQPKLIACGNSVATFAMAVRFLTGPAVMAVAAIAIGLRGDLLRVAIVQAALPQGIVPFVFAKEYNVHPAILSTGVIFGMLIALPITLVYYILLGL
B4: CELLULOSE SYNTHASE 3 (protein, UniProt Q941L0 1-1065)
chain: MESEGETAGKPMKNIVPQTCQICSDNVGKTVDGDRFVACDICSFPVCRPCYEYERKDGNQSCPQCKTRYKRLKGSPAIPGDKDEDGLADEGTVEFNYPQKEKISERMLGWHLTRGKGEEMGEPQYDKEVSHNHLPRLTSRQDTSGEFSAASPERLSVSSTIAGGKRLPYSSDVNQSPNRRIVDPVGLGNVAWKERVDGWKMKQEKNTGPVSTQAASERGGVDIDASTDILADEALLNDEARQPLSRKVSIPSSRINPYRMVIMLRLVILCLFLHYRITNPVPNAFALWLVSVICEIWFALSWILDQFPKWFPVNRETYLDRLALRYDREGEPSQLAAVDIFVSTVDPLKEPPLVTANTVLSILAVDYPVDKVSCYVSDDGAAMLSFESLAETSEFARKWVPFCKKYSIEPRAPEWYFAAKIDYLKDKVQTSFVKDRRAMKREYEEFKIRINALVSKALKCPEEGWVMQDGTPWPGNNTRDHPGMIQVFLGQNGGLDAEGNELPRLVYVSREKRPGFQHHKKAGAMNALVRVSAVLTNGPFILNLDCDHYINNSKALREAMCFLMDPNLGKQVCYVQFPQRFDGIDKNDRYANRNTVFFDINLRGLDGIQGPVYVGTGCVFNRTALYGYEPPIKVKHKKPSLLSKLCGGSRKKNSKAKKESDKKKSGRHTDSTVPVFNLDDIEEGVEGAGFDDEKALLMSQMSLEKRFGQSAVFVASTLMENGGVPPSATPENLLKEAIHVISCGYEDKSDWGMEIGWIYGSVTEDILTGFKMHARGWRSIYCMPKLPAFKGSAPINLSDRLNQVLRWALGSVEILFSRHCPIWYGYNGRLKFLERFAYVNTTIYPITSIPLLMYCTLPAVCLFTNQFIIPQISNIASIWFLSLFLSIFATGILEMRWSGVGIDEWWRNEQFWVIGGVSAHLFAVFQGILKVLAGIDTNFTVTSKASDEDGDFAELYLFKWTTLLIPPTTLLIVNLVGVVAGVSYAINSGYQSWGPLFGKLFFAFWVIVHLYPFLKGLMGRQNRTPTIVVVWSVLLASIFSLLWVRIDPFTSRVTGPDILECGINC
B5: PIN-FORMED 7 (protein, UniProt Q940Y5 1-619)
chain: MITWHDLYTVLTAVIPLYVAMILAYGSVRWWKIFSPDQCSGINRFVAIFAVPLLSFHFISSNNPYAMNLRFIAADTLQKLIMLTLLIIWANFTRSGSLEWSITIFSLSTLPNTLVMGIPLLIAMYGEYSGSLMVQIVVLQCIIWYTLLLFLFEYRGAKILIMEQFPETGASIVSFKVESDVVSLDGHDFLETDAQIGDDGKLHVTVRKSNASRRSFYGGGGTNMTPRPSNLTGAEIYSLNTTPRGSNFNHSDFYSMMGFPGGRLSNFGPADMYSVQSSRGPTPRPSNFEESCAMASSPRFGYYPGGAPGSYPAPNPEFSTGNKTGSKAPKENHHHVGKSNSNDAKELHMFVWGSNGSPVSDRAGLQVDNGANEQVGKSDQGGAKEIRMLISDHTQNGENKAGPMNGDYGGEEESERVKEVPNGLHKLRCNSTAELNPKEAIETGETVPVKHMPPASVMTRLILIMVWRKLIRNPNTYSSLIGLIWALVAFRWDVAMPKIIQQSISILSDAGLGMAMFSLGLFMALQPKLIACGNSTATFAMAVRFFTGPAVMAVAAMAIGLRGDLLRVAIVQAALPQGIVPFVFAKEYNVHPAILSTGVIFGMLIALPITLVYYILLGL
B6: TOPLESS (protein, UniProt Q94AI7 1-1131)
chain: MSSLSRELVFLILQFLDEEKFKETVHKLEQESGFFFNMKYFEDEVHNGNWDEVEKYLSGFTKVDDNRYSMKIFFEIRKQKYLEALDKHDRPKAVDILVKDLKVFSTFNEELFKEITQLLTLENFRENEQLSKYGDTKSARAIMLVELKKLIEANPLFRDKLQFPTLRNSRLRTLINQSLNWQHQLCKNPRPNPDIKTLFVDHSCGPPNGARAPSPVNNPLLGGIPKAGGFPPLGAHGPFQPTASPVPTPLAGWMSSPSSVPHPAVSAGAIALGGPSIPAALKHPRTPPTNASLDYPSADSEHVSKRTRPMGISDEVNLGVNMLPMSFSGQAHGHSPAFKAPDDLPKTVARTLSQGSSPMSMDFHPIKQTLLLVGTNVGDIGLWEVGSRERLVQKTFKVWDLSKCSMPLQAALVKEPVVSVNRVIWSPDGSLFGVAYSRHIVQLYSYHGGEDMRQHLEIDAHVGGVNDISFSTPNKQLCVITCGDDKTIKVWDAATGVKRHTFEGHEAPVYSVCPHYKENIQFIFSTALDGKIKAWLYDNMGSRVDYDAPGRWCTTMAYSADGTRLFSCGTSKDGESFIVEWNESEGAVKRTYQGFHKRSLGVVQFDTTKNRYLAAGDDFSIKFWDMDAVQLLTAIDGDGGLQASPRIRFNKEGSLLAVSGNENVIKIMANSDGLRLLHTFENISSESSKPAINSIAAAAAAAATSAGHADRSANVVSIQGMNGDSRNMVDVKPVITEESNDKSKIWKLTEVSEPSQCRSLRLPENLRVAKISRLIFTNSGNAILALASNAIHLLWKWQRNERNATGKATASLPPQQWQPASGILMTNDVAETNPEEAVPCFALSKNDSYVMSASGGKISLFNMMTFKTMATFMPPPPAATFLAFHPQDNNIIAIGMDDSTIQIYNVRVDEVKSKLKGHSKRITGLAFSNVLNVLVSSGADAQLCVWNTDGWEKQRSKVLPLPQGRPNSAPSDTRVQFHQDQAHFLVVHETQLAIYETTKLECMKQWAVRESLAPITHATFSCDSQLVYASFMDATVCVFSSANLRLRCRVNPSAYLPASLSNSNVHPLVIAAHPQEPNMFAVGLSDGGVHIFEPLESEGKWGVAPPAENGSASGAPTAPSVGASASDQPQR

These are yes or no findings as the source states them, for the method shown. Binding seen in cells or lysates may run through a third protein. These calls come from enrichment with a bait or labelling near it, and not all partners need be listed.

In this experiment the target is BIN2-YFP-TbID (full-length BIN2 fused with YFP and TurboID), in transgenic Arabidopsis (Arabidopsis thaliana) (UniProt Q39011). Briefly: proximity labelling; TbPL-MS: transgenic Arabidopsis seedlings with BIN2-YFP-TbID against YFP-YFP-TbID control, 14N/15N labelling, 50 µM biotin for 3 h, desalting, streptavidin beads, on-bead digestion, LC-MS/MS; BIN2-proximal: ratio >=3 in at least three of four replicates.
“BRASSINOSTEROID-… KINASE3 (from UniProt Q8W4L3 1-489)”: the binding result was “binds”.

In the case of ACINUS (from UniProt O65655), the binding result is “binds”.

Take “phototropin 2 (from UniProt P93025 1-915)”: the binding entry is recorded as “binds”.

Regarding “ANXUR1 receptor kinase (from UniProt Q9SR05 27-850)”, the binding entry is given as “binds”.

For At1g30320 (from UniProt Q9C8G3), the binding entry was “binds”.

For “HERCULES (HERK1) receptor kinase (from UniProt Q9LX66 25-830)”, the binding entry is on record as “binds”.

For the molecule “ANX2 receptor kinase (from UniProt Q3E8W4 28-858)”, the binding result is “binds”.

Consider “SUGAR … 8 (mitogen-activated protein kinase kinase kinase) (from UniProt Q9C9U5 1-1030) (enzyme)”, for which the binding entry is given as “binds”.

With OCTOPUS LIKE 2 (from UniProt F4IRZ1), the binding result is reported as “binds”.

On to B1, for which the binding result is listed as “binds”.

B2: the binding result is reported as “binds”.

B3: the binding entry is given as “binds”.

Consider B4, for which the binding result is “binds”.

As for B5, the binding result is “binds”.

As for B6, the binding result is recorded as “binds”.
